We go through one substance from article PMC12832388.

The chains behind the UniProt entries cited, without tags or fusion partners.
UniProt Q8R4B8: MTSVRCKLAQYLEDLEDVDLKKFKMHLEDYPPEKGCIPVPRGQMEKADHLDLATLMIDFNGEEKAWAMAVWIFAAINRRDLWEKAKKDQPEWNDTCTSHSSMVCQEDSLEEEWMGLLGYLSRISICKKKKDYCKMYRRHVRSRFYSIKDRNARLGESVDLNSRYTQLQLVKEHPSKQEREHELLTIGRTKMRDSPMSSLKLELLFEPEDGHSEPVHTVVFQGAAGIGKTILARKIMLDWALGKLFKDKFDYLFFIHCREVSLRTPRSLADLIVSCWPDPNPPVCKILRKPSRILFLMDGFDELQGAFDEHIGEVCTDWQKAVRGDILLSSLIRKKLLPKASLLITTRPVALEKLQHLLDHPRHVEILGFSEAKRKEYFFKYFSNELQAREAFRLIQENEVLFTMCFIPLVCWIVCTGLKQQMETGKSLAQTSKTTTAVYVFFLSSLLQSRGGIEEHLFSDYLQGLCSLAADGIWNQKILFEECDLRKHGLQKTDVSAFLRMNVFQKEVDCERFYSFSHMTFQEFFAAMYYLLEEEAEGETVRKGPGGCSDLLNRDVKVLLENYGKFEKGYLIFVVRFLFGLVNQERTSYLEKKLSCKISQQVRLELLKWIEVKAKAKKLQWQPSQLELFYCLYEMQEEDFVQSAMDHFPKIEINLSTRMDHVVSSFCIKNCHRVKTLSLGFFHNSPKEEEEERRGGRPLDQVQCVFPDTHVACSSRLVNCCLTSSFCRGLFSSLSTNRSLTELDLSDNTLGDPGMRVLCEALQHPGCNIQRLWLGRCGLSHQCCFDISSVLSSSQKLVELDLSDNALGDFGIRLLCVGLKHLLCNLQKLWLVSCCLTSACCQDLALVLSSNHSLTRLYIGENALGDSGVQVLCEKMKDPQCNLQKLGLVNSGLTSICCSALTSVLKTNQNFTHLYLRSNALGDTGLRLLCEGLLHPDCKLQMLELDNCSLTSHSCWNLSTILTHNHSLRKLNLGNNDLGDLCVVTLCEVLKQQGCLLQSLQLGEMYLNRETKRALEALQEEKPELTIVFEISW

Results are given in words; binding and its absence hold for the method and conditions named. In cells and extracts the contact can be indirect. Some binding calls cover weakened binding; strength is not graded here.

This assay deals with T1, Interferon regulatory factor 7 (mouse (endogenous in BV2)) (UniProt P70434).
T1 sequence: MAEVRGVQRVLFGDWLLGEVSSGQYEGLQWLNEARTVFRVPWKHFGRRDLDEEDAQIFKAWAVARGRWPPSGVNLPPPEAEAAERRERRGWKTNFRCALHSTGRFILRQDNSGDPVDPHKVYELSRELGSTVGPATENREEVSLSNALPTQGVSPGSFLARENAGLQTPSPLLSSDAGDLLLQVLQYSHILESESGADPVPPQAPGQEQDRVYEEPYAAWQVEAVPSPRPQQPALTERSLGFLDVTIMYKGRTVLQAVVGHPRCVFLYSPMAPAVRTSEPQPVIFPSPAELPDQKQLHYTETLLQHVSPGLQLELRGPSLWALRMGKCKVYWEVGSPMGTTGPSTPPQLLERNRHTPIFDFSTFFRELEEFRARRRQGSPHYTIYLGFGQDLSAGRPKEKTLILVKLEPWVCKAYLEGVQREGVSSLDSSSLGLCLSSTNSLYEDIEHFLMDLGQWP
The experiment in a line: co-IP; lysate of E50K-BV2 cells; anti-IRF7 antibody (rabbit IgG as control) on Protein A/G magnetic beads, 4°C for 2 h, washed three times with PBST; Western blot for NLRP3.

Take “NOD-like Receptor Protein 3 (from UniProt Q8R4B8 1-1033)”: the binding entry is reported as “binds”.
